Assay results published in ChEMBL document CHEMBL5352460, “Antibacterial activity evaluation of pleuromutilin derivatives with 4(3H)-quinazolinone scaffold against methicillin-resistant Staphylococcusaureus” (Eur J Med Chem, 2023).
Converted amounts (≈) assume the structure as drawn.

System: Escherichia coli
Test: microbe, parasite or virus in culture
Type: functional
Details: ATCC25922, time 20 hrs

SMILES: C=C[C@]1(C)C[C@@H](OC(=O)CSc2nc3[nH]ccc3c(=O)[nH]2)[C@]2(C)[C@H](C)CC[C@]3(CCC(=O)[C@H]32)[C@@H](C)[C@@H]1O
- MIC: 32 µg/mL (≈ 60.6 µM)
